Experiment: general procedure: Fmoc solid-phase peptide synthesis; 2-chlorotrityl chloride resin; HCTU (SPPS); DIC/DMAP (esterification); HBTU/HOBt (macrolactamization)
Settings: whole synthesis, TFA salt; for isolated yield: scale of the general procedure 0.09 mmol

Substance	isolated mass [mg]	isolated yield [%]
D-allo-Ile11,Arg10-teixobactin	13.2	10.0
L-Thr8,Arg10-teixobactin	4.7	3.6
